Measurements as given in PubChem BioAssay AID504834 (National Center for Advancing Translational Sciences (NCATS), 2011).
The whole screen tested about 320,000 compounds, of which about 22,000 (6.9%) were called active. The inconclusive results got no clear call from the source; some entries with a clear call stand among them for comparison. Calls follow the shape of the dose curve; as a rule, active = well fitted inhibition curve with a large enough effect; inconclusive = small, poorly fitted or top-dose-only effect, or another doubt; inactive = no such curve, though single readings can be large or run the other way. Where the call is inconclusive, the potency comes from a doubtful curve fit.
Potency is read from the fitted curve at half-maximal effect.

Test: Primary qHTS for delayed death inhibitors of the malarial parasite plastid, 96 hour incubation
Conditions: P. falciparum luciferase reporter growth; series mostly up to 28.7 µM
Procedure, shortened: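 Delayed-death screen, second-generation endpoint: infected erythrocytes, 2% hematocrit, 0.05% parasitemia final; 96 hours at 37 C, 5% CO2; luciferase detection reagent; luminescence decrease equals reduced growth.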
With `Cc1nn(-c2ccc(F)cc2)c(Cl)c1C(=O)N(C)CC(=O)Nc1cccc(F)c1` the Potency was “inactive”. For `C=CCNC(=O)CN1CCC(O)(c2ccccc2)CC1`, the Potency was inconclusive: 0.208 µM [inhibitor, full curve, poor fit]. With `Cc1ccc(-c2nnc(Nc3ccccc3)o2)cc1` the Potency was inconclusive: 18.5 µM [inhibitor, single point]. With `CCOCc1nnc(NC(=O)c2ccc(NC(C)=O)cc2)s1` the Potency was “inactive”. In the case of `CCOC(=O)Cn1nc(C(F)F)c(Br)c1C`, the Potency was inconclusive: 10.4 µM [inhibitor, single point]. With `O=C(Cc1ccc(Br)c2ccccc12)N/N=C/c1ccccn1` the Potency was “inactive”. With `NSc1nc(N)c2nc(-c3ccccc3)c(-c3ccccc3)nc2n1` the Potency was inconclusive: 9.28 µM [inhibitor, partial curve, poor fit]. For `Cc1cc(C)cc(NC(=O)CC2Oc3ccc(C)cc3NC2=O)c1` (configuration not stated), the Potency was inconclusive: 2.94 µM [inhibitor, partial curve, poor fit]. For `CCn1c(SCC(=O)N2CCCC(C)C2)nnc1-c1ccco1` (configuration not stated), the Potency was inconclusive: 10.4 µM [inhibitor, single point]. In the case of `CCOC(=O)C1CCCN(CC(=O)Nc2c(F)c(F)c(F)c(F)c2F)C1` (configuration not stated), the Potency was inconclusive: 9.28 µM [inhibitor, partial curve]. In the case of `Cn1c(=O)cc(OCCCC(=O)NCc2ccc3c(c2)OCO3)c2ccccc21`, the Potency was inconclusive: 0.928 µM [inhibitor, full curve, poor fit]. With `CCC(=O)CCC(=O)c1ccc2ccccc2c1` the Potency was “inactive”. In the case of `O=C(O/N=C1/CCCc2occc21)c1ccccc1`, the Potency was inconclusive: 2.33 µM [inhibitor, partial curve, poor fit]. For `CN(Cc1nc(CCc2ccccc2)no1)Cc1cccs1`, the Potency was inconclusive: 14.7 µM [inhibitor, single point]. In the case of `Cc1occc1-c1nnc(SCC(N)=O)o1`, the Potency was inconclusive: 10.4 µM [inhibitor, single point]. For `Cc1cccc(S(=O)(=O)N2CN(CC3CCCO3)c3nc4ccccc4nc32)c1` (configuration not stated), the Potency was inconclusive: 4.15 µM [inhibitor, partial curve]. In the case of `COc1ccc(N2C(=O)CC(N(CCc3ccc(OC)c(OC)c3)C(=S)Nc3ccccc3)C2=O)cc1` (configuration not stated), the Potency was inconclusive: 1.31 µM [inhibitor, partial curve]. With `CN(C)CC(=O)c1ccc(-c2ccccc2)cc1` the Potency was “inactive”. With `Cc1c(CN2CCC(CO)(Cc3ccccc3)CC2)c2ccccc2n1C` the Potency was inconclusive: 3.7 µM [inhibitor, partial curve, poor fit]. With `O=C(NCCNC1CCC(c2ccccc2)CC1)c1ccc(F)cc1` (configuration not stated) the Potency was inconclusive: 7.38 µM [inhibitor, partial curve, poor fit]. With `O=C1NC(=Nc2ccc(F)cc2)CS1` the Potency was inconclusive: 18.5 µM [inhibitor, single point]. In the case of `O=C(Nc1cccc(O)c1)c1cccc(S(=O)(=O)N2CCCC2)c1`, the Potency was “inactive”. In the case of `Cc1ccc(Cl)cc1NC(=O)CSc1nnc(C)n1-c1ccccc1`, the Potency was inconclusive: 10.4 µM [inhibitor, single point]. In the case of `CCOc1ccc(/C=C2\CCC(C3CCCC3)C2=O)cc1` (configuration not stated), the Potency was “inactive”. For `O=C(N/N=C/c1ccc(OC(=O)c2ccccc2)cc1)c1ccc(CN2CCOCC2)cc1`, the Potency was “inactive”. With `N/C(=N\OS(=O)(=O)c1ccc(Cl)cc1)c1ccncc1` the Potency was “inactive”. In the case of `COc1ccc(C(NC(=O)c2ccc(F)cc2)c2ccccc2)cc1` (configuration not stated), the Potency was inconclusive: 13.1 µM [inhibitor, single point]. With `CCc1ccc(NC(=O)CS(=O)CC(=O)Nc2ccc(N3CCOCC3)cc2)cc1` (configuration not stated) the Potency was “inactive”. With `COc1ccc(Cl)cc1NC(=O)c1ccc2c(SCC(=O)O)c3c(nc2c1)CCCC3` the Potency was inconclusive: 18.5 µM [inhibitor, single point]. With `COc1ccc(NC2CCCN(C(=O)CSc3ccncc3)C2)cc1` (configuration not stated) the Potency was “inactive”. In the case of `O=C(CC1C(=O)NCCN1C/C=C/c1ccccc1)NCCCC1CCCC1` (configuration not stated), the Potency was inconclusive: 18.5 µM [inhibitor, single point]. In the case of `COc1ccc(C)cc1Nc1n[n+](-c2ccccc2)c(-c2ccc(OC)c(OC)c2OC)s1`, the Potency was active: 1.04 µM. With `Cc1ccc(C(=O)Nc2cccc(NC(=O)c3ccc(C)c([N+](=O)[O-])c3)n2)cc1[N+](=O)[O-]` the Potency was inconclusive: 18.5 µM [inhibitor, single point]. In the case of `COC(=O)c1scc(C)c1N/N=C(\C)c1cc(F)c(Cl)cc1F`, the Potency was “inactive”. For `CCc1ccccc1NC(=O)c1ccccc1N1C(=O)C2C3C=CC(C3)C2C1=O` (configuration not stated), the Potency was inconclusive: 18.5 µM [inhibitor, single point]. With `CC(C)C[C@@H](CN=[N+]=[N-])N1CCN(C)CCC1=O` the Potency was active: 14.7 µM. In the case of `Cc1ccc2cc(/C=N/NC(=O)[C@H]3C[C@@H]3c3ccccc3)c(Cl)nc2c1`, the Potency was active: 2.08 µM. With `COc1cc(C2NC(=O)c3ccccc3O2)cc(OC)c1OC` (configuration not stated) the Potency was inconclusive: 18.5 µM [inhibitor, single point]. In the case of `Nc1ccc2nc(-c3ccccn3)[nH]c2c1`, the Potency was inconclusive: 16.5 µM [inhibitor, single point]. In the case of `CC(C)CC(=O)Nc1nnc(SCC(=O)Nc2ccc3c(c2)OCO3)s1`, the Potency was inconclusive: 2.94 µM [inhibitor, full curve, poor fit]. For `COc1ccc(NC(=O)c2ccccc2NC(=O)c2ccccc2)cc1`, the Potency was “inactive”. For `CC(Cc1ccccc1)NC=O` (configuration not stated), the Potency was inconclusive: 16.9 µM [inhibitor, single point]. With `CCOC(=O)C1=C(C)OC(N)=C(C(=O)OCC)C1c1ccncc1` (configuration not stated) the Potency was inconclusive: 18.5 µM [inhibitor, single point]. With `Cc1cccc(N2CC(C(=O)Nc3ccc(S(=O)(=O)N4CCCCC4)cc3)CC2=O)c1C` (configuration not stated) the Potency was inconclusive: 10.4 µM [inhibitor, single point]. For `COc1ccc(C(=O)N/N=C/c2ccc(SC)cc2)cc1`, the Potency was inconclusive: 11.7 µM [inhibitor, single point]. With `Cc1ccc(CNCc2ccccc2Cl)cc1` the Potency was “inactive”. For `COc1ccc(C(c2nnnn2C(C)(C)C)N2CCN(c3nc4ccccc4s3)CC2)cc1OC` (configuration not stated), the Potency was inconclusive: 3.29 µM [inhibitor, partial curve, poor fit]. For `Cc1ccc(CCN2CC(C(=O)NCCCN(C)Cc3ccccc3)CC2=O)cc1` (configuration not stated), the Potency was “inactive”. For `O=C(CSc1nnc(-c2n[nH]c3ccccc23)n1-c1ccccc1)Nc1cccc(Cl)c1`, the Potency was inconclusive: 11.7 µM [inhibitor, single point]. With `c1ccc(OCCSc2nnc3sc4ccccc4n23)cc1` the Potency was “inactive”. With `Cc1ccc2[nH]c(=O)c(CN(CCc3ccccc3)Cc3nnnn3CC3CCCO3)cc2c1` (configuration not stated) the Potency was inconclusive: 4.15 µM [inhibitor, partial curve, poor fit]. With `CCN(CCn1cccn1)C(=O)CC1C(=O)NCCN1CCc1ccccc1` (configuration not stated) the Potency was “inactive”. For `Cc1ccccc1CNC(=O)C(=O)NCC1CCCN1S(=O)(=O)c1ccccc1` (configuration not stated), the Potency was inconclusive: 18.5 µM [inhibitor, single point]. For `CC(OC(=O)C1CC(=O)N(Cc2ccco2)C1)C(=O)Nc1ccc(F)cc1Cl` (configuration not stated), the Potency was inconclusive: 8.28 µM [inhibitor, single point]. With `O=C1COc2ccc(-c3csc(NCCc4ccccc4)n3)cc2N1` the Potency was inconclusive: 18.5 µM [inhibitor, single point]. With `COc1ccc(OC)c(-c2csc(NC(=O)COC(=O)C3CCC3)n2)c1` the Potency was “inactive”. With `CN(C)c1ccc(C(CC(=O)c2ccccc2)C2CCCCC2=O)cc1` (configuration not stated) the Potency was active: 10.4 µM. For `O=C(O)C1CCCN1C(=O)Nc1ccccc1` (configuration not stated), the Potency was inconclusive: 8.28 µM [inhibitor, partial curve]. With `COc1cccc(NC(=O)COc2cc(O)c3c(c2)OC(C)(C)CC3=O)c1` the Potency was “inactive”. In the case of `COc1cccc(-c2csc(N3CCN(C(=S)NCC(C)C)CC3)n2)c1`, the Potency was active: 14.7 µM. For `CC(C)(C)OC(=O)NCCc1nnc(SCc2c(Cl)cccc2Cl)o1`, the Potency was inconclusive: 18.5 µM [inhibitor, single point]. With `O=C1/C(=C/c2cccnc2)CC/C1=C\c1cccnc1` the Potency was inconclusive: 18.5 µM [inhibitor, single point]. For `CC1(C)Cc2c(c(N3CCOCC3)nc3snc(NC(=O)c4ccccc4)c23)CO1`, the Potency was active: 8.28 µM. With `CCc1nc2ccccc2c(C(=O)Nc2ccc(F)cc2)c1C` the Potency was inconclusive: 16.5 µM [inhibitor, partial curve, poor fit]. With `Cc1ccc(NC(=O)Nc2ccc3c(c2)nc(C)n3C)cc1C` the Potency was inconclusive: 5.22 µM [inhibitor, partial curve, poor fit]. For `COc1ccc(C(=O)N(Cc2ccc(N(C)C)cc2)C2CCS(=O)(=O)C2)cc1` (configuration not stated), the Potency was inconclusive: 18.5 µM [inhibitor, single point]. With `COc1ccc(CC2NCCC3(O)CCCCC23)cc1` (configuration not stated) the Potency was “inactive”. In the case of `CC(CN1CCOCC1)OC(=O)C(c1ccccc1)c1ccccc1` (configuration not stated), the Potency was inconclusive: 18.5 µM [inhibitor, single point]. With `O=C(CN1CCC(n2nnc3cc(F)ccc32)CC1)NCCc1ccccc1` the Potency was inconclusive: 9.28 µM [inhibitor, partial curve, poor fit]. With `CS(=O)(=O)N(CC(=O)N1CCOCC1)c1ccc(Cl)cc1` the Potency was inconclusive: 18.5 µM [inhibitor, single point]. With `CCC(C)C(NC(=O)c1ccccc1NC(=O)c1ccc(C)cc1)C(=O)O` (configuration not stated) the Potency was “inactive”. For `COc1ccc(NC(=O)CC(C)c2ccccc2)cc1S(=O)(=O)N1CCOCC1` (configuration not stated), the Potency was inconclusive: 13.1 µM [inhibitor, single point].
